Experimental data as given in patent US10525115B2 (Immatics Biotechnologies GmbH, priority 2014, dated 2020).

Tested on: primary AML samples
Test: HLA class I ligandome analysis (W6/32 immunoaffinity purification, LC-MS/MS) of primary AML samples
Parameters: species or system human
Settings: for Number of positive AMLs: HLA class I ligandome, AML patients (n=15), count for the HLA ligand (LiTAP) or, on protein lines, for the source protein (LiTAA); for Number of positive AMLs [rep. frequency]: representation frequency of the source protein (LiTAA) in AML patients (n=15)

B1: DOLK (protein, UniProt Q9UPQ8 1-538, looked up)
Dolichol kinase: MTRECPSPAPGPGAPLSGSVLAEAAVVFAVVLSIHATVWDRYSWCAVALAVQAFYVQYKWDRLLQQGSAVFQFRMSANSGLLPASMVMPLLGLVMKERCQTAGNPFFERFGIVVAATGMAVALFSSVLALGITRPVPTNTCVILGLAGGVIIYIMKHSLSVGEVIEVLEVLLIFVYLNMILLYLLPRCFTPGEALLVLGGISFVLNQLIKRSLTLVESQGDPVDFFLLVVVVGMVLMGIFFSTLFVFMDSGTWASSIFFHLMTCVLSLGVVLPWLHRLIRRNPLLWLLQFLFQTDTRIYLLAYWSLLATLACLVVLYQNAKRSSSESKKHQAPTIARKYFHLIVVATYIPGIIFDRPLLYVAATVCLAVFIFLEYVRYFRIKPLGHTLRSFLSLFLDERDSGPLILTHIYLLLGMSLPIWLIPRPCTQKGSLGGARALVPYAGVLAVGVGDTVASIFGSTMGEIRWPGTKKTFEGTMTSIFAQIISVALILIFDSGVDLNYSYAWILGSISTVSLLEAYTTQIDNLLLPLYLLILLMA
Number of positive AMLs: 4 | Number of positive AMLs [rep. frequency]: [26.7%]

B2: EEF2K (protein, UniProt O00418 2-725, looked up)
Eukaryotic elongation factor …: ADEDLIFRLEGVDGGQSPRAGHDGDSDGDSDDEEGYFICPITDDPSSNQNVNSKVNKYYSNLTKSERYSSSGSPANSFHFKEAWKHAIQKAKHMPDPWAEFHLEDIATERATRHRYNAVTGEWLDDEVLIKMASQPFGRGAMRECFRTKKLSNFLHAQQWKGASNYVAKRYIEPVDRDVYFEDVRLQMEAKLWGEEYNRHKPPKQVDIMQMCIIELKDRPGKPLFHLEHYIEGKYIKYNSNSGFVRDDNIRLTPQAFSHFTFERSGHQLIVVDIQGVGDLYTDPQIHTETGTDFGDGNLGVRGMALFFYSHACNRICESMGLAPFDLSPRERDAVNQNTKLLQSAKTILRGTEEKCGSPQVRTLSGSRPPLLRPLSENSGDENMSDVTFDSLPSSPSSATPHSQKLDHLHWPVFSDLDNMASRDHDHLDNHRESENSGDSGYPSEKRGELDDPEPREHGHSYSNRKYESDEDSLGSSGRVCVEKWNLLNSSRLHLPRASAVALEVQRLNALDLEKKIGKSILGKVHLAMVRYHEGGRFCEKGEEWDQESAVFHLEHAANLGELEAIVGLGLMYSQLPHHILADVSLKETEENKTKGFDYLLKAAEAGDRQSMILVARAFDSGQNLSPDRCQDWLEALHWYNTALEMTDCDEGGEYDGMQDEPRYMMLAREAEMLFTGGYGLEKDPQRSGDLYTQAAEAAMEAMKGRLANQYYQKAEEAWAQMEE
Number of positive AMLs: 3 | Number of positive AMLs [rep. frequency]: [20.0%]

B3: TIPRL (protein, UniProt O75663 1-272, looked up)
TIP41-like protein: MMIHGFQSSHRDFCFGPWKLTASKTHIMKSADVEKLADELHMPSLPEMMFGDNVLRIQHGSGFGIEFNATDALRCVNNYQGMLKVACAEEWQESRTEGEHSKEVIKPYDWTYTTDYKGTLLGESLKLKVVPTTDHIDTEKLKAREQIKFFEEVLLFEDELHDHGVSSLSVKIRVMPSSFFLLLRFFLRIDGVLIRMNDTRLYHEADKTYMLREYTSRESKISSLMHVPPSLFTEPNEISQYLPIKEAVCEKLIFPERIDPNPADSQKSTQVE
Number of positive AMLs: 3 | Number of positive AMLs [rep. frequency]: [20.0%]

B4: CPQ (protein, UniProt Q9Y646 45-472, looked up)
Carboxypeptidase Q: DVAKAIINLAVYGKAQNRSYERLALLVDTVGPRLSGSKNLEKAIQIMYQNLQQDGLEKVHLEPVRIPHWERGEESAVMLEPRIHKIAILGLGSSIGTPPEGITAEVLVVTSFDELQRRASEARGKIVVYNQPYINYSRTVQYRTQGAVEAAKVGALASLIRSVASFSIYSPHTGIQEYQDGVPKIPTACITVEDAEMMSRMASHGIKIVIQLKMGAKTYPDTDSFNTVAEITGSKYPEQVVLVSGHLDSWDVGQGAMDDGGGAFISWEALSLIKDLGLRPKRTLRLVLWTAEEQGGVGAFQYYQLHKVNISNYSLVMESDAGTFLPTGLQFTGSEKARAIMEEVMSLLQPLNITQVLSHGEGTDINFWIQAGVPGASLLDDLYKYFFFHHSHGDTMTVMDPKQMNVAAAVWAVVSYVVADMEEMLPRS
Number of positive AMLs: 6 | Number of positive AMLs [rep. frequency]: [40.0%]

B5: CCS (protein, UniProt O14618 1-274, looked up)
Copper chaperone for …: MASDSGNQGTLCTLEFAVQMTCQSCVDAVRKSLQGVAGVQDVEVHLEDQMVLVHTTLPSQEVQALLEGTGRQAVLKGMGSGQLQNLGAAVAILGGPGTVQGVVRFLQLTPERCLIEGTIDGLEPGLHGLHVHQYGDLTNNCNSCGNHFNPDGASHGGPQDSDRHRGDLGNVRADADGRAIFRMEDEQLKVWDVIGRSLIIDEGEDDLGRGGHPLSKITGNSGERLACGIIARSAGLFQNPKQICSCDGLTIWEERGRPIAGKGRKESAQPPAHL
Number of positive AMLs: 3 | Number of positive AMLs [rep. frequency]: [20.0%]

B6: RPS6KA4 (protein, UniProt O75676 1-772, looked up)
Ribosomal protein S6 kinase …: MGDEDDDESCAVELRITEANLTGHEEKVSVENFELLKVLGTGAYGKVFLVRKAGGHDAGKLYAMKVLRKAALVQRAKTQEHTRTERSVLELVRQAPFLVTLHYAFQTDAKLHLILDYVSGGEMFTHLYQRQYFKEAEVRVYGGEIVLALEHLHKLGIIYRDLKLENVLLDSEGHIVLTDFGLSKEFLTEEKERTFSFCGTIEYMAPEIIRSKTGHGKAVDWWSLGILLFELLTGASPFTLEGERNTQAEVSRRILKCSPPFPPRIGPVAQDLLQRLLCKDPKKRLGAGPQGAQEVRNHPFFQGLDWVALAARKIPAPFRPQIRSELDVGNFAEEFTRLEPVYSPPGSPPPGDPRIFQGYSFVAPSILFDHNNAVMTDGLEAPGAGDRPGRAAVARSAMMQDSPFFQQYELDLREPALGQGSFSVCRRCRQRQSGQEFAVKILSRRLEANTQREVAALRLCQSHPNVVNLHEVHHDQLHTYLVLELLRGGELLEHIRKKRHFSESEASQILRSLVSAVSFMHEEAGVVHRDLKPENILYADDTPGAPVKIIDFGFARLRPQSPGVPMQTPCFTLQYAAPELLAQQGYDESCDLWSLGVILYMMLSGQVPFQGASGQGGQSQAAEIMCKIREGRFSLDGEAWQGVSEEAKELVRGLLTVDPAKRLKLEGLRGSSWLQDGSARSSPPLRTPDVLESSGPAVRSGLNATFMAFNRGKREGFFLKSVENAPLAKRRKQKLRSATASRRGSPAPANPGRAPVASKGAPRRANGPLPPS
Number of positive AMLs: 3 | Number of positive AMLs [rep. frequency]: [20.0%]

B7: TMEM194A (protein, UniProt O14524 44-444, looked up)
Nuclear envelope integral …: ETDVNVVMLQESQVCEKRASQQFCYTNVLIPKWHDIWTRIQIRVNSSRLVRVTQVENEEKLKELEQFSIWNFFSSFLKEKLNDTYVNVGLYSTKTCLKVEIIEKDTKYSVIVIRRFDPKLFLVFLLGLMLFFCGDLLSRSQIFYYSTGMTVGIVASLLIIIFILSKFMPKKSPIYVILVGGWSFSLYLIQLVFKNLQEIWRCYWQYLLSYVLTVGFMSFAVCYKYGPLENERSINLLTWTLQLMGLCFMYSGIQIPHIALAIIIIALCTKNLEHPIQWLYITCRKVCKGAEKPVPPRLLTEEEYRIQGEVETRKALEELREFCNSPDCSAWKTVSRIQSPKRFADFVEGSSHLTPNEVSVHEQEYGLGSIIAQDEIYEEASSEEEDSYSRCPAITQNNFLT
Number of positive AMLs: 3 | Number of positive AMLs [rep. frequency]: [20.0%]

B8: SLC12A6 (protein, UniProt Q9UHW9 1-1150, looked up)
Solute carrier family 12 …: MHPPETTTKMASVRFMVTPTKIDDIPGLSDTSPDLSSRSSSRVRFSSRESVPETSRSEPMSEMSGATTSLATVALDPPSDRTSHPQDVIEDLSQNSITGEHSQLLDDGHKKARNAYLNNSNYEEGDEYFDKNLALFEEEMDTRPKVSSLLNRMANYTNLTQGAKEHEEAENITEGKKKPTKTPQMGTFMGVYLPCLQNIFGVILFLRLTWVVGTAGVLQAFAIVLICCCCTMLTAISMSAIATNGVVPAGGSYFMISRALGPEFGGAVGLCFYLGTTFAAAMYILGAIEIFLVYIVPRAAIFHSDDALKESAAMLNNMRVYGTAFLVLMVLVVFIGVRYVNKFASLFLACVIVSILAIYAGAIKSSFAPPHFPVCMLGNRTLSSRHIDVCSKTKEINNMTVPSKLWGFFCNSSQFFNATCDEYFVHNNVTSIQGIPGLASGIITENLWSNYLPKGEIIEKPSAKSSDVLGSLNHEYVLVDITTSFTLLVGIFFPSVTGIMAGSNRSGDLKDAQKSIPIGTILAILTTSFVYLSNVVLFGACIEGVVLRDKFGDAVKGNLVVGTLSWPSPWVIVIGSFFSTCGAGLQSLTGAPRLLQAIAKDNIIPFLRVFGHSKANGEPTWALLLTAAIAELGILIASLDLVAPILSMFFLMCYLFVNLACALQTLLRTPNWRPRFRYYHWALSFMGMSICLALMFISSWYYAIVAMVIAGMIYKYIEYQGAEKEWGDGIRGLSLSAARFALLRLEEGPPHTKNWRPQLLVLLKLDEDLHVKHPRLLTFASQLKAGKGLTIVGSVIVGNFLENYGEALAAEQTIKHLMEAEKVKGFCQLVVAAKLREGISHLIQSCGLGGMKHNTVVMGWPNGWRQSEDARAWKTFIGTVRVTTAAHLALLVAKNISFFPSNVEQFSEGNIDVWWIVHDGGMLMLLPFLLKQHKVWRKCSIRIFTVAQLEDNSIQMKKDLATFLYHLRIEAEVEVVEMHDSDISAYTYERTLMMEQRSQMLRHMRLSKTERDREAQLVKDRNSMLRLTSIGSDEDEETETYQEKVHMTWTKDKYMASRGQKAKSMEGFQDLLNMRPDQSNVRRMHTAVKLNEVIVNKSHEAKLVLLNMPGPPRNPEGDENYMEFLEVLTEGLERVLLVRGGGSEVITIYS
Number of positive AMLs: 4 | Number of positive AMLs [rep. frequency]: [26.7%]

B9: RCBTB2 (protein, UniProt O95199 1-551, looked up)
RCC1 and BTB …: MEEELPLFSGDSGKPVQATLSSLKMLDVGKWPIFSLCSEEELQLIRQACVFGSAGNEVLYTTVNDEIFVLGTNCCGCLGLGDVQSTIEPRRLDSLNGKKIACLSYGSGPHIVLATTEGEVFTWGHNAYSQLGNGTTNHGLVPCHISTNLSNKQVIEVACGSYHSLVLTSDGEVFAWGYNNSGQVGSGSTVNQPIPRRVTGCLQNKVVVTIACGQMCCMAVVDTGEVYVWGYNGNGQLGLGNSGNQPTPCRVAALQGIRVQRVACGYAHTLVLTDEGQVYAWGANSYGQLGTGNKSNQSYPTPVTVEKDRIIEIAACHSTHTSAAKTQGGHVYMWGQCRGQSVILPHLTHFSCTDDVFACFATPAVTWRLLSVEPDDHLTVAESLKREFDNPDTADLKFLVDGKYIYAHKVLLKIRCEHFRSSLEDNEDDIVEMSEFSYPVYRAFLEYLYTDSISLSPEEAVGLLDLATFYRENRLKKLCQQTIKQGICEENAIALLSAAVKYDAQDLEEFCFRFCINHLTVVTQTSGFAEMDHDLLKNFISKASRVGAFKN
Number of positive AMLs: 3 | Number of positive AMLs [rep. frequency]: [20.0%]

B10: LYRM1 (protein, UniProt O43325 1-122, looked up)
LYR motif-containing protein 1: MTTATRQEVLGLYRSIFRLARKWQATSGQMEDTIKEKQYILNEARTLFRKNKNLTDTDLIKQCIDECTARIEIGLHYKIPYPRPIHLPPMGLTPLRGRGLRSQEKLRKLSKPVYLRSHDEVS
Number of positive AMLs: 3 | Number of positive AMLs [rep. frequency]: [20.0%]
